Assay: Pharmacokinetic evaluation in rat
Type: in vivo
Description: The pharmacokinetic behavior of compounds of this disclosure was determined following a single 2 mg/kg intravenous or 5 mg/kg oral dose in male Sprague-Dawley derived rats (n=3 per group). The compounds were prepared as 2 mg/mL solution in a 10% DMSO in PEG-400 formulation for both oral and intravenous administration. The 1 mL/kg intravenous dose was administered as a slow bolus (about 1-2 minutes) in the jugular vein of a rat under light ether anesthetic. The oral dose was administered by gavage. Serial blood samples were obtained from a tail vein of each rat prior 0.1 (IV only), 0.25, 0.5, 1, 1.5, 2, 3, 4, 6, 8 and 24 hours after dosing. The heparinized samples were thoroughly mixed and placed in an ice bath. Plasma was separated by centrifugation and stored frozen prior to analysis.
The compounds of interest were separated from the plasma using protein precipitation with acetonitrile. A plasma (100-200 μL, sample or spiked standard) aliquot was combined with 50 μL of internal standard (structurally related analog prepared in acetonitrile) and 1 ml acetonitrile in a 96-well polypropylene deep well plate. The plates were vortexed for 30 seconds followed by centrifugation (3500 rpm×15 minutes, 4° C.). In an automated manner, the supernatant was transferred to a clean 96-well plate. The samples were evaporated to near dryness on a Micro-Vap™ under a stream of dry nitrogen over low heat (˜37° C.). The samples were reconstituted vortexing with 0.2 mL 5% DMSO in acetonitrile. A 0.1-0.2 ml aliquot of acetonitrile: 0.1% trifluoroacetic acid (20:80, by volume) was added to each well, followed by an additional 30 second vortexing. The plates were centrifuged (3500 rpm×15 minutes, 4° C.) prior to HPLC-MS/MS analysis. Samples were analyzed simultaneously with spiked plasma standards. All samples from each study were analyzed as a single batch on the LC-MS/MS.
The compounds of interest and the internal standard were separated from each other and co-extracted contaminants on a 50×3 mm Keystone Betasil CN 5 μm column with an acetonitrile: 0.1% trifluoroacetic acid mobile phase (50:50, by volume) at a flow rate of 0.7 ml/min. Analysis was performed on a Sciex API 300™ Biomolecular Mass Analyzer using a heated nebulizer interface. Peak areas of the title compounds and internal standards were determined using the Sciex MacQuan™ software. Calibration curves were derived from peak area ratio (parent drug/internal standard) of the spiked rat plasma standards using least squares linear regression of the ratio versus the theoretical concentration. The methods were generally linear over the range of the standard curve (correlation coefficients >0.99) with an estimated quantitation limit of 0.01 μg/mL. The plasma concentration data for each animal were submitted to multi-exponential curve fitting using WinNonlin. The area under the plasma concentration-time curve from 0 to t hours (time of the last measurable plasma concentration) after dosing (AUC0-t) was calculated using the linear trapezoidal rule for the plasma concentration-time profiles. The residual area extrapolated to infinity, determined as the final measured plasma concentration (Ct) divided by the terminal elimination rate constant (β), was added to AUC0-t to produce the total area under the curve (AUC0-∞). Ki values shown in the tables below were determined using Wang's equation (Wang Z X., An Exact Mathematical Expression For Describing Competitive Binding Of Two Different Ligands To A Protein Molecule. FEBS Lett. 1995; 360:111-4)).

[1] = rat oral AUC / NCI-H146 EC50, Table 1

| Structure (SMILES) | PK/PD ratio AUC/EC50 (Table 2) | PK/PD ratio AUC/EC50 [1] | PK/PD ratio AUC/EC50 (Table 3) |
| --- | --- | --- | --- |
| CN(C)CC[C@H](CSc1ccccc1)Nc1ccc(S(=O)(=O)NC(=O)c2ccc(N3CCN(Cc4ccccc4-c4ccc(Cl)cc4)CC3)cc2)cc1C(F)(F)F [A, reference compound] | 2.8 |  |  |
| CN(C)CC[C@H](CSc1ccccc1)Nc1ccc(S(=O)(=O)NC(=O)c2ccc(N3CCN(Cc4ccccc4-c4ccc(Cl)cc4)CC3)cc2)cc1[N+](=O)[O-] [B, reference compound] | 4.5 |  |  |
| CN(C)CC[C@H](CSc1ccccc1)Nc1ccc(S(=O)(=O)NC(=O)c2ccc(N3CCN(Cc4ccccc4-c4ccc(Cl)cc4)CC3)cc2)cc1C#N [C, reference compound] | 1.1 |  |  |
| CN(C)CC[C@H](CSc1ccccc1)Nc1ccc(S(=O)(=O)NC(=O)c2ccc(N3CCN(Cc4ccccc4-c4ccc(Cl)cc4)CC3)cc2)c(F)c1C(F)(F)F [D, reference compound] | 0.5 |  |  |
| CC1(C)CCC(CN2CCN(c3ccc(C(=O)NS(=O)(=O)c4ccc(N[C@H](CCN5CCOCC5)CSc5ccccc5)c(S(=O)(=O)C(F)(F)Cl)c4)cc3)CC2)=C(c2ccc(Cl)cc2)C1 [Example 2, 3-((chloro(difluoro)methyl)sulfonyl)-N-(4-(4-((2-(4-chlorophenyl)-4,4-dimethylcyclohex-1-en-1-yl)methyl)piperazin-1-yl)benzoyl)-4-(((1R)-3-(morpholin-4-yl)-1-((phenylsulfanyl)methyl)propyl)amino)benzenesulfonamide] |  | 241 |  |
| O=C(NS(=O)(=O)c1ccc(N[C@H](CCN2CCOCC2)CSc2ccccc2)c(S(=O)(=O)C(F)(F)Cl)c1)c1ccc(N2CCN(CC3=C(c4ccc(Cl)cc4)CCCC3)CC2)cc1 [Example 3, 3-((chloro(difluoro)methyl)sulfonyl)-N-(4-(4-((2-(4-chlorophenyl)-1-cyclohex-1-en-1-yl)methyl)piperazin-1-yl)benzoyl)-4-(((1R)-3-(morpholin-4-yl)-1-((phenylsulfanyl)methyl)propyl)amino)benzenesulfonamide] |  | 144 | 143.6 |
| CC(C)N(C)CC[C@H](CSc1ccccc1)Nc1ccc(S(=O)(=O)NC(=O)c2ccc(N3CCN(CC4=C(c5ccc(Cl)cc5)CCC(C)(C)C4)CC3)cc2)cc1S(=O)(=O)C(F)(F)F [Example 4, N-(4-(4-((2-(4-chlorophenyl)-5,5-dimethylcyclohex-1-en-1-yl)methyl)piperazin-1-yl)benzoyl)-4-(((1R)-3-(isopropyl(methyl)amino)-1-((phenylsulfanyl)methyl)propyl)amino)-3-((trifluoromethyl)sulfonyl)benzenesulfonamide] |  | 108 |  |
| CC(C)N(C)CC[C@H](CSc1ccccc1)Nc1ccc(S(=O)(=O)NC(=O)c2ccc(N3CCN(CC4=C(c5ccc(Cl)cc5)CCCCC4)CC3)cc2)cc1S(=O)(=O)C(F)(F)F [Example 5, N-(4-(4-((2-(4-chlorophenyl)-1-cyclohepten-1-yl)methyl)piperazin-1-yl)benzoyl)-4-(((1R)-3-(isopropyl(methyl)amino)-1-((phenylsulfanyl)methyl)propyl)amino)-3-((trifluoromethyl)sulfonyl)benzenesulfonamide] |  | 57 |  |
| O=C(NS(=O)(=O)c1ccc(N[C@H](CCN2C[C@@H]3C[C@H]2CO3)CSc2ccccc2)c(S(=O)(=O)C(F)(F)Cl)c1)c1ccc(N2CCN(CC3=C(c4ccc(Cl)cc4)CCCC3)CC2)cc1 [Example 6, 3-((chloro(difluoro)methyl)sulfonyl)-N-(4-(4-((2-(4-chlorophenyl)cyclohex-1-en-1-yl)methyl)piperazin-1-yl)benzoyl)-4-(((1R)-3-((1S,4S)-2-oxa-5-azabicyclo[2.2.1]hept-5-yl)-1-((phenylsulfanyl)methyl)propyl)amino)benzenesulfonamide] |  | 91 | 91.6 |
| O=C(NS(=O)(=O)c1ccc(N[C@H](CCN2CCOCC2)CSc2ccccc2)c(S(=O)(=O)C(F)(F)F)c1)c1ccc(N2CCN(CC3=C(c4ccc(Cl)cc4)CCCC3)CC2)cc1 [Example 7, N-(4-(4-((2-(4-chlorophenyl)cyclohex-1-en-1-yl)methyl)piperazin-1-yl)benzoyl)-4-(((1R)-3-(morpholin-4-yl)-1-((phenylsulfanyl)methyl)propyl)amino)-3-((trifluoromethyl)sulfonyl)benzenesulfonamide] |  | 66 | 65.6 |
| O=C(NS(=O)(=O)c1ccc(N[C@H](CCN2C3CCC2CC3)CSc2ccccc2)c(S(=O)(=O)C(F)(F)F)c1)c1ccc(N2CCN(CC3=C(c4ccc(Cl)cc4)CCCC3)CC2)cc1 [Example 8, 4-(((1R)-3-(7-azabicyclo[2.2.1]hept-7-yl)-1-((phenylsulfanyl)methyl)propyl)amino)-N-(4-(4-((2-(4-chlorophenyl)cyclohex-1-en-1-yl)methyl)piperazin-1-yl)benzoyl)-3-((trifluoromethyl)sulfonyl)benzenesulfonamide] |  | 52 | 51.7 |
| O=C(NS(=O)(=O)c1ccc(N[C@H](CCN2CC3CC2CO3)CSc2ccccc2)c(S(=O)(=O)C(F)(F)F)c1)c1ccc(N2CCN(CC3=C(c4ccc(Cl)cc4)CCCC3)CC2)cc1 (stereo partly drawn) [Example 9, N-(4-(4-((2-(4-chlorophenyl)cyclohex-1-en-1-yl)methyl)piperazin-1-yl)benzoyl)-4-(((1R)-3-(2-oxa-5-azabicyclo[2.2.1]hept-5-yl)-1-((phenylsulfanyl)methyl)propyl)amino)-3-((trifluoromethyl)sulfonyl)benzenesulfonamide] |  | 137 | 137.5 |
| CC1(C)CCC(c2ccc(Cl)cc2)=C(CN2CCN(c3ccc(C(=O)NS(=O)(=O)c4ccc(N[C@H](CCN5CC6CC5CO6)CSc5ccccc5)c(S(=O)(=O)C(F)(F)F)c4)cc3)CC2)C1 (stereo partly drawn) [Example 10, N-(4-(4-((2-(4-chlorophenyl)-5,5-dimethylcyclohex-1-en-1-yl)methyl)piperazin-1-yl)benzoyl)-4-(((1R)-3-(2-oxa-5-azabicyclo[2.2.1]hept-5-yl)-1-((phenylsulfanyl)methyl)propyl)amino)-3-((trifluoromethyl)sulfonyl)benzenesulfonamide] |  | 73 |  |
| CC1(C)CCC(c2ccc(Cl)cc2)=C(CN2CCN(c3ccc(C(=O)NS(=O)(=O)c4ccc(N[C@H](CCN5CC6CC5CO6)CSc5ccccc5)c(S(=O)(=O)C(F)(F)Cl)c4)cc3)CC2)C1 (stereo partly drawn) [Example 11, 3-((chloro(difluoro)methyl)sulfonyl)-N-(4-(4-((2-(4-chlorophenyl)-5,5-dimethylcyclohex-1-en-1-yl)methyl)piperazin-1-yl)benzoyl)-4-(((1R)-3-(2-oxa-5-azabicyclo[2.2.1]hept-5-yl)-1-((phenylsulfanyl)methyl)propyl)amino)benzenesulfonamide] |  | 117 |  |
| O=C(NS(=O)(=O)c1ccc(N[C@H](CCN2CC3CC2CO3)CSc2ccccc2)c(S(=O)(=O)C(F)(F)F)c1)c1ccc(N2CCN(CC3=C(c4ccc(Cl)cc4)CCCCC3)CC2)cc1 (stereo partly drawn) [Example 12, N-(4-(4-((2-(4-chlorophenyl)cyclohept-1-en-1-yl)methyl)piperazin-1-yl)benzoyl)-4-(((1R)-3-(2-oxa-5-azabicyclo[2.2.1]hept-5-yl)-1-((phenylsulfanyl)methyl)propyl)amino)-3-((trifluoromethyl)sulfonyl)benzenesulfonamide] |  | 76 |  |
| O=C(NS(=O)(=O)c1ccc(N[C@H](CCN2CC3CC2CO3)CSc2ccccc2)c(S(=O)(=O)C(F)(F)Cl)c1)c1ccc(N2CCN(CC3=C(c4ccc(Cl)cc4)CCCCC3)CC2)cc1 (stereo partly drawn) [Example 13, 3-((chloro(difluoro)methyl)sulfonyl)-N-(4-(4-((2-(4-chlorophenyl)cyclohept-1-en-1-yl)methyl)piperazin-1-yl)benzoyl)-4-(((1R)-3-(2-oxa-5-azabicyclo[2.2.1]hept-5-yl)-1-((phenylsulfanyl)methyl)propyl)amino)benzenesulfonamide] |  | 108 |  |

From US8624027B2, “Combination therapy for treating cancer and diagnostic assays for use therein” (AbbVie Inc., priority 2005, dated 2014)
